No constants are given. Whether binding was seen depends on the method and setting. Binding seen in cells or lysates may run through a third protein. Here binding means that the protein was enriched with, or labelled near, the bait; the list need not be complete. For some assays here: No binding means not detected with the bait.
B1: RBM14 (endogenous) (protein, UniProt Q96PK6 1-669)
chain: MKIFVGNVDGADTTPEELAALFAPYGTVMSCAVMKQFAFVHMRENAGALRAIEALHGHELRPGRALVVEMSRPRPLNTWKIFVGNVSAACTSQELRSLFERRGRVIECDVVKDYAFVHMEKEADAKAAIAQLNGKEVKGKRINVELSTKGQKKGPGLAVQSGDKTKKPGAGDTAFPGTGGFSATFDYQQAFGNSTGGFDGQARQPTPPFFGRDRSPLRRSPPRASYVAPLTAQPATYRAQPSVSLGAAYRAQPSASLGVGYRTQPMTAQAASYRAQPSVSLGAPYRGQLASPSSQSAAASSLGPYGGAQPSASALSSYGGQAAAASSLNSYGAQGSSLASYGNQPSSYGAQAASSYGVRAAASSYNTQGAASSLGSYGAQAASYGAQSAASSLAYGAQAASYNAQPSASYNAQSAPYAAQQAASYSSQPAAYVAQPATAAAYASQPAAYAAQATTPMAGSYGAQPVVQTQLNSYGAQASMGLSGSYGAQSAAAATGSYGAAAAYGAQPSATLAAPYRTQSSASLAASYAAQQHPQAAASYRGQPGNAYDGAGQPSAAYLSMSQGAVANANSTPPPYERTRLSPPRASYDDPYKKAVAMSKRYGSDRRLAELSDYRRLSESQLSFRRSPTKSSLDYRRLPDAHSDYARYSGSYNDYLRAAQMHSGYQRRM
B2: NHN1 (endogenous) (protein, UniProt Q86VM9 1-953)
chain: MDVAESPERDPHSPEDEEQPQGLSDDDILRDSGSDQDLDGAGVRASDLEDEESAARGPSQEEEDNHSDEEDRASEPKSQDQDSEVNELSRGPTSSPCEEEGDEGEEDRTSDLRDEASSVTRELDEHELDYDEEVPEEPAPAVQEDEAEKAGAEDDEEKGEGTPREEGKAGVQSVGEKESLEAAKEKKKEDDDGEIDDGEIDDDDLEEGEVKDPSDRKVRPRPTCRFFMKGNCTWGMNCRFIHPGVNDKGNYSLITKADPFPPNGAPPLGPHPLMPANPWGGPVVDEILPPPPPEPPTESAWERGLRHAKEVLKKATIRKEQEPDFEEKRFTVTIGEDEREFDKENEVFRDWNSRIPRDVRDTVLEPYADPYYDYEIERFWRGGQYENFRVQYTETEPYHNYRERERERERENRQRERERERERDRERERRQRERERERERERDKERQRRKEEWERERAKRDEKDRQHRDRDREKEREKEKGKPKPRSPQPPSRQAEPPKKEAATTGPQVKRADEWKDPWRRSKSPKKKLGVSVSPSRARRRRKTSASSASASNSSRSSSRSSSYSGSGSSRSRSRSSSYSSYSSRSSRHSSFSGSRSRSRSFSSSPSPSPTPSPHRPSIRTKGEPAPPPGKAGEKSVKKPAPPPAPPQATKTTAPVPEPTKPGDPREARRKERPARTPPRRRTLSGSGSGSGSSYSGSSSRSRSLSVSSVSSVSSATSSSSSAHSVDSEDMYADLASPVSSASSRSPAPAQTRKEKGKSKKEDGVKEEKRKRDSSTQPPKSAKPPAGGKSSQQPSTPQQAPPGQPQQGTFVAHKEIKLTLLNKAADKGSRKRYEPSDKDRQSPPPAKRPNTSPDRGSRDRKSGGRLGSPKPERQRGQNSKAPAAPADRKRQLSPQSKSSSKVTSVPGKASDPGAASTKSGKASTLSRREELLKQLKAVEDAIARKRAKIPGKA
B3: HA95 (endogenous) (protein, UniProt Q9ULX6 1-646)
chain: MSYTGFVQGSETTLQSTYSDTSAQPTCDYGYGTWNSGTNRGYEGYGYGYGYGQDNTTNYGYGMATSHSWEMPSSDTNANTSASGSASADSVLSRINQRLDMVPHLETDMMQGGVYGSGGERYDSYESCDSRAVLSERDLYRSGYDYSELDPEMEMAYEGQYDAYRDQFRMRGNDTFGPRAQGWARDARSGRPMASGYGRMWEDPMGARGQCMSGASRLPSLFSQNIIPEYGMFQGMRGGGAFPGGSRFGFGFGNGMKQMRRTWKTWTTADFRTKKKKRKQGGSPDEPDSKATRTDCSDNSDSDNDEGTEGEATEGLEGTEAVEKGSRVDGEDEEGKEDGREEGKEDPEKGALTTQDENGQTKRKLQAGKKSQDKQKKRQRDRMVERIQFVCSLCKYRTFYEDEMASHLDSKFHKEHFKYVGTKLPKQTADFLQEYVTNKTKKTEELRKTVEDLDGLIQQIYRDQDLTQEIAMEHFVKKVEAAHCAACDLFIPMQFGIIQKHLKTMDHNRNRRLMMEQSKKSSLMVARSILNNKLISKKLERYLKGENPFTDSPEEEKEQEEAEGGALDEGAQGEAAGISEGAEGVPAQPPVPPEPAPGAVSPPPPPPPEEEEEGAVPLLGGALQRQIRGIPGLDVEDDEEGGGGAP
B4: ZNF326 (endogenous) (protein, UniProt Q5BKZ1 1-582)
chain: MDFEDDYTHSACRNTYQGFNGMDRDYGPGSYGGMDRDYGHGSYGGQRSMDSYLNQSYGMDNHSGGGGGSRFGPYESYDSRSSLGGRDLYRSGYGFNEPEQSRFGGSYGGRFESSYRNSLDSFGGRNQGGSSWEAPYSRSKLRPGFMEDRGRENYSSYSSFSSPHMKPAPVGSRGRGTPAYPESTFGSRNYDAFGGPSTGRGRGRGHMGDFGSIHRPGIVVDYQNKSTNVTVAAARGIKRKMMQPFNKPSGTFIKKPKLAKPMEKISLSKSPTKTDPKNEEEEKRRIEARREKQRRRREKNSEKYGDGYRMAFTCSFCKFRTFEEKDIELHLESSSHQETLDHIQKQTKFDKVVMEFLHECMVNKFKKTSIRKQQTNNQTEVVKIIEKDVMEGVTVDDHMMKVETVHCSACSVYIPALHSSVQQHLKSPDHIKGKQAYKEQIKRESVLTATSILNNPIVKARYERFVKGENPFEIQDHSQDQQIEGDEEDEEKIDEPIEEEEDEDEEEEAEEVGEVEEVEEVEEVREGGIEGEGNIQGVGEGGEVGVVGEVEGVGEVEEVEELEEETAKEEPADFPVEQPEEN
B5: SFRS2 (endogenous) (protein, UniProt Q01130 1-221)
chain: MSYGRPPPDVEGMTSLKVDNLTYRTSPDTLRRVFEKYGRVGDVYIPRDRYTKESRGFAFVRFHDKRDAEDAMDAMDGAVLDGRELRVQMARYGRPPDSHHSRRGPPPRRYGGGGYGRRSRSPRRRRRSRSRSRSRSRSRSRSRYSRSKSRSRTRSRSRSTSKSRSARRSKSKSSSVSRSRSRSRSRSRSRSPPPVSKRESKSRSRSKSPPKSPEEEGAVSS
B6: hnRNP M (endogenous) (protein, UniProt P52272 1-730)
chain: MAAGVEAAAEVAATEIKMEEESGAPGVPSGNGAPGPKGEGERPAQNEKRKEKNIKRGGNRFEPYANPTKRYRAFITNIPFDVKWQSLKDLVKEKVGEVTYVELLMDAEGKSRGCAVVEFKMEESMKKAAEVLNKHSLSGRPLKVKEDPDGEHARRAMQKVMATTGGMGMGPGGPGMITIPPSILNNPNIPNEIIHALQAGRLGSTVFVANLDYKVGWKKLKEVFSMAGVVVRADILEDKDGKSRGIGTVTFEQSIEAVQAISMFNGQLLFDRPMHVKMDERALPKGDFFPPERPQQLPHGLGGIGMGLGPGGQPIDANHLNKGIGMGNIGPAGMGMEGIGFGINKMGGMEGPFGGGMENMGRFGSGMNMGRINEILSNALKRGEIIAKQGGGGGGGSVPGIERMGPGIDRLGGAGMERMGAGLGHGMDRVGSEIERMGLVMDRMGSVERMGSGIERMGPLGLDHMASSIERMGQTMERIGSGVERMGAGMGFGLERMAAPIDRVGQTIERMGSGVERMGPAIERMGLSMERMVPAGMGAGLERMGPVMDRMATGLERMGANNLERMGLERMGANSLERMGLERMGANSLERMGPAMGPALGAGIERMGLAMGGGGGASFDRAIEMERGNFGGSFAGSFGGAGGHAPGVARKACQIFVRNLPFDFTWKMLKDKFNECGHVLYADIKMENGKSKGCGVVKFESPEVAERACRMMNGMKLSGREIDVRIDRNA

Chains of the proteins cited; added tags and fusions are not shown. Lines headed by an entry give the natural chain unless they say otherwise; changes in a name come on top. A line that says so, or that is headed by a name, gives the form on record, which may keep a tag or linker. Residues count along the entry.
UniProt O43823: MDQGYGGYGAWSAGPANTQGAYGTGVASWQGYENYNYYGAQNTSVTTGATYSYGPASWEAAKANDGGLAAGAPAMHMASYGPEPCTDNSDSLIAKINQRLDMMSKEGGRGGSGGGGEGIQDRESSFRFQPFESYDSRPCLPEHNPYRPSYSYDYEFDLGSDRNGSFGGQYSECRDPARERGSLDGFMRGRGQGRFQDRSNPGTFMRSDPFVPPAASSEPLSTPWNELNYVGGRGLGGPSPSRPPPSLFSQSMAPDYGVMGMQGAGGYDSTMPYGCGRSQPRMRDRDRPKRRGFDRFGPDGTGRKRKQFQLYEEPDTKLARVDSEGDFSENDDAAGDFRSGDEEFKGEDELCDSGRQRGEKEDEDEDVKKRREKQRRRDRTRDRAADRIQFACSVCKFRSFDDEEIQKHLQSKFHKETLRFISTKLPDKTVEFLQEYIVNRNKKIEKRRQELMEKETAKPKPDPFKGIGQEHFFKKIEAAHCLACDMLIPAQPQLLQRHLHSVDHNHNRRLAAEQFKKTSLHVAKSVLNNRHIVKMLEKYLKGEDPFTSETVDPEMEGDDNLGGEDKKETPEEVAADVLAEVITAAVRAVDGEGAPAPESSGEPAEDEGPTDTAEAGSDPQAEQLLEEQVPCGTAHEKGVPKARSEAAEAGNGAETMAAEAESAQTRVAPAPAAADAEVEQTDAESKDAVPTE
FLAG-HA-tagged AKAP95 (101–692): residues 101-692 of O43823

molecular target: FLAG-HA-tagged AKAP95 (101–692) (human) (UniProt O43823); experiment: affinity purification with mass spectrometry; nuclear extracts of Flp-In-293 stable lines on anti-FLAG M2 agarose, BC300 with 0.1% NP40, 4 °C, 6 h; FLAG peptide elution, SDS-PAGE, MALDI mass spectrometry; proteins found with control cells excluded

binding | Binder
no binding | B1
no binding | B2
no binding | B3
no binding | B4
no binding | B5

molecular target: FLAG-HA-tagged full-length human AKAP95 (human) (UniProt O43823); experiment: as above

binding | Binder
binds | B6
binds | B1
binds | B2
binds | B3
binds | B4
binds | B5
